Consider two molecules from patent US20240301068A1 (BEIJING HANMI PHARMACEUTICAL, published 2024).

The chains behind the UniProt entries cited, without tags or fusion partners. Residues count along the entry.
UniProt Q9NZQ7, residues 19-239: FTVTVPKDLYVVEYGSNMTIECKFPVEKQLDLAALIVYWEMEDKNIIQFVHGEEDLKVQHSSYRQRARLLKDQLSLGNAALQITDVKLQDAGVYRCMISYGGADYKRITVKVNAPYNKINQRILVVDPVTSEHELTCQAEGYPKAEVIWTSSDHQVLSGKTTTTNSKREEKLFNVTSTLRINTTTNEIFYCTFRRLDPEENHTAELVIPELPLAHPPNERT

In experiment [1] the target is recombinant human PD-L1 (Sino Biological Inc.) (human) (UniProt Q9NZQ7). The experiment in a line: ELISA, human PD-L1 coated, hybridoma supernatant.
The target in experiment [2] is recombinant cynomolgus PD-L1 (Sino Biological Inc.) (cynomolgus) (UniProt G7PSE7). In words: ELISA, antigen coated at 1 ug/mL. In general terms: An ELISA detects its analyte on a solid surface through an enzyme-linked reagent.

No constants are given. Whether binding was seen depends on the method and setting. Some results given as binding are weak or reduced against the parent protein; the word gives no strength.

B1: murine anti-human PD-L1 monoclonal antibody secreted by the clone 34-35 (antibody, V domains shown)
VH: EVQLQQSGAELVKPGASVKLSCTASGFNIEDTYIHWVMQRPEQGLEWIGRIDPANGNTKYDPKFQGKATITADTSSNTAYLQLSSLTSEDTAVYYCGRGLGAWFAYWGQGTLVTVSA
VL: DIVMTQSHKVMSTSVGDRVTITCKASQDVHTAVAWIHQKPGQSPKLLIYSASNRYTGVPDRFTGSGSGTDFTFTISSVQAEDLAVYYCQQHYITPLTFGAGTTLELK
notes: also called murine monoclonal antibodies
On to B1, for which the binding entry in experiment [1] is listed as “binds”.

B2: chimeric anti-human PD-L1 monoclonal antibody (antibody, human IgG1, kappa, V domains shown)
VH: B1 VH
VL: DIVMTQSHKVMSTSVGDRVTITCKASQDVHTAVAWIHQKPGQSPKLLIYSASNRYTGVPDRFTGSGSGTDFTFTISSVQAEDLAVYYCQQHYITPLTFGAGTTLELKR
notes: expressed in ExpiCHO cells; also called Chimeric mAb; Chimeric antibody
For the molecule B2, the binding entry in experiment [2] is given as “binds”.
